{"source": "the supplement of paper PMC12067093", "about": "“Discovery and optimisation of a covalent ligand for TRIM25 and its application to targeted protein ubiquitination” (Chemical Science, 2025)", "note": "The list shows a part of the results.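 Also: competitive chemoproteomic profiling in live THP-1 cells with an iodoacetamide desthiobiotin (IA-DTB) probe, comparing probe-labelled peptide intensities in compound-treated cells against DMSO-treated controls.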", "data": [{"compound": "CC1Cc2ccccc2N1C(=O)C1CCCN(C1)C(=O)CCl (mixture of isomers) [TRIM25 ligand 11 (diastereomer mixture)]", "assay": "probe-labelled cysteine peptide fold change vs DMSO (competition) (log2 fold change); higher = less target engagement (more negative = stronger competition)", "conditions": "10 µM; THP-1; incubation time: 4 h", "values": [{"target": "HDAC6_Q9UBN7_752_GDPLGGCQVSPEGYAHLTHLLMGLASGR (UniProt Q9UBN7)", "probe-labelled cysteine peptide fold change": 0.145}, {"target": "HGH1_Q9BTY7_227_NCCFEHR (UniProt Q9BTY7)", "probe-labelled cysteine peptide fold change": -0.00541}, {"target": "HGH1_Q9BTY7_138_EPAPCAALMAALAAAEPADSGLER (UniProt Q9BTY7)", "probe-labelled cysteine peptide fold change": -0.136}, {"target": "HELLS_Q9NRZ9_169_ENEDENSSSTNLCVEDLQK (UniProt Q9NRZ9)", "probe-labelled cysteine peptide fold change": -0.199}, {"target": "HAUS6_Q7Z4H7_32_EHLWMYLQALGFEPGPATIACGK (UniProt Q7Z4H7)", "probe-labelled cysteine peptide fold change": 0.11}, {"target": "HIP1_O00291_430_QQAADDCEFLR (UniProt O00291)", "probe-labelled cysteine peptide fold change": -0.06}, {"target": "HERC2_O95714_914_ALSALLPCAVSGNEVNISPGRR (UniProt O95714)", "probe-labelled cysteine peptide fold change": 0.0334}, {"target": "HERC1_Q15751_1991_LFSLLSDCMWETPIAQAK (UniProt Q15751)", "probe-labelled cysteine peptide fold change": 0.0771}, {"target": "HAUS7_Q99871_348_KQQGEQICWGGSSSVMSLATK (UniProt Q99871)", "probe-labelled cysteine peptide fold change": -0.105}, {"target": "HEATR5B_Q9P2D3_1262_IINLCENADQAHFDLALAR (UniProt Q9P2D3)", "probe-labelled cysteine peptide fold change": -0.117}, {"target": "HK2_P52789_628_ASGCEGEDVVTLLK (UniProt P52789)", "probe-labelled cysteine peptide fold change": -0.0603}, {"target": "HEATR5B_Q9P2D3_1166_KLCSDIHDTLGHMLSSLAVEK (UniProt Q9P2D3)", "probe-labelled cysteine peptide fold change": -0.144}, {"target": "HDAC7_Q8WUI4_533_HQCSCGDNSR (UniProt Q8WUI4)", "probe-labelled cysteine peptide fold change": 0.42}, {"target": "HELZ_P42694_199_YGAQCTSAHSQEELAEWQK (UniProt P42694)", "probe-labelled cysteine peptide fold change": 0.211}, {"target": "HEATR3_Q7Z4Q2_585_NIGCFLLEVTTK (UniProt Q7Z4Q2)", "probe-labelled cysteine peptide fold change": 0.0622}, {"target": "HEATR1_Q9H583_1263_QLILSCLLNICQK (UniProt Q9H583)", "probe-labelled cysteine peptide fold change": -0.253}, {"target": "HK1_P19367_256_MCINTEWGAFGDDGSLEDIRTEFDREIDRGSLNPGK (UniProt P19367)", "probe-labelled cysteine peptide fold change": -0.265}, {"target": "HERC2_O95714_4517_DESGANRDCYLLSPAAR (UniProt O95714)", "probe-labelled cysteine peptide fold change": 0.0289}, {"target": "HERC2_O95714_664_CGSQFSIALTK (UniProt O95714)", "probe-labelled cysteine peptide fold change": -0.0687}, {"target": "HGS_O14964_185+190_ACGQIFCGK (UniProt O14964)", "probe-labelled cysteine peptide fold change": -0.0659}, {"target": "HDAC3_O15379_94_SLNAFNVGDDCPVFPGLFEFCSR (UniProt O15379)", "probe-labelled cysteine peptide fold change": -0.0228}, {"target": "HK1_P19367_158_KLPVGFTFSFPCQQSK (UniProt P19367)", "probe-labelled cysteine peptide fold change": -0.196}, {"target": "HDAC2_Q92769_13_VCYYYDGDIGNYYYGQGHPMK (UniProt Q92769)", "probe-labelled cysteine peptide fold change": 0.0825}, {"target": "HLA-A_P01891_363_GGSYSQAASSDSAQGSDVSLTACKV (UniProt P01891)", "probe-labelled cysteine peptide fold change": 0.000689}, {"target": "HK1_P19367_886_CNVSFLLSEDGSGK (UniProt P19367)", "probe-labelled cysteine peptide fold change": -0.12}, {"target": "HK2_P52789_794_FLSQIESDCLALLQVR (UniProt P52789)", "probe-labelled cysteine peptide fold change": 0.0239}, {"target": "HECTD3_Q5T447_744_VCGDPEVTVDALR (UniProt Q5T447)", "probe-labelled cysteine peptide fold change": 0.0618}, {"target": "HK2_P52789_813_AILQHLGLESTCDDSIIVK (UniProt P52789)", "probe-labelled cysteine peptide fold change": 0.344}, {"target": "HDAC9_Q9UKV0_534_SDSSACVDDTLGQVGAVK (UniProt Q9UKV0)", "probe-labelled cysteine peptide fold change": 0.000227}, {"target": "HAUS6_Q7Z4H7_662_VISDCECVPQK (UniProt Q7Z4H7)", "probe-labelled cysteine peptide fold change": -0.149}, {"target": "HINT1_P49773_38_IIFEDDRCLAFHDISPQAPTHFLVIPK (UniProt P49773)", "probe-labelled cysteine peptide fold change": -0.447}, {"target": "HIRIP3_Q9BW71_86_RPPTPCSDPER (UniProt Q9BW71)", "probe-labelled cysteine peptide fold change": 0.0927}, {"target": "HLA-DRB5_Q30154_146_TQTLQHHNLLVCSVNGFYPGSIEVR (UniProt Q30154)", "probe-labelled cysteine peptide fold change": -0.132}, {"target": "HELB_Q8NG08_379_KPPWHLCVDVEK (UniProt Q8NG08)", "probe-labelled cysteine peptide fold change": -0.115}, {"target": "HDAC1_Q13547_284_CVEFVK (UniProt Q13547)", "probe-labelled cysteine peptide fold change": 0.0227}, {"target": "HK3_P52790_409_AAQLCAAALAAVLSCLQHSR (UniProt P52790)", "probe-labelled cysteine peptide fold change": -0.0103}, {"target": "HIRIP3_Q9BW71_449+450_LLGSCCSHK (UniProt Q9BW71)", "probe-labelled cysteine peptide fold change": -0.0235}]}]}
